US12384767B2, “Probe for detection of cathepsin activity” (University of Florida Research Foundation, Incorporated, priority 2020, dated 2025)
“And” between values parts separate entries of the source, which are not always exact repeats. Identical values can stand only once. Residues, ends and D or L forms follow the SMILES beside them. *: point of attachment. AMC = Cc1cc(=O)oc2cc(N*)ccc12; Cbz = O=C(OCc1ccccc1)*

Tested on: CTB, CTV, and CTS
Test: Time-course cathepsin assay, total competing signal (sum of CTB, CTV, and CTS) normalized to CTL
Format: biochemical, human
From the text: CTV and CTB appear to remain within the initial velocity region of the curves during this time, with a markedly lower slope than that observed for CTL initially.
The kinetic assays were repeated at pH 5.0 (FIG. 3C, D), and overall the same trends were observed as at pH 6.5. One notable difference is the altered reaction slope of CTL at this pH, which appears to have less of a plateau and instead seems to shift to a second phase of constant, yet slower, velocity. […] This improved activity of CTB at low pH is consistent with previous observations that CTB's unique carboxypeptidase activity is dependent on an acidic environment, and that this activity is disengaged at neutral pH^13.
To estimate relative selectivity of the compounds for CTL over the other enzymes, the intensity at each time point for CTB, CTV, or CTS, was divided by the intensity of CTL at the same time point; this normalizes CTL-generated signal intensity to 1.0, and expresses the relative signal generated by the other enzymes (FIG. 5). These graphs indicate that off-target signal is least prominent within the first 10 min of incubation, as the faster kinetics of the probes to CTL generate more contrast at these earlier time points. To quantify the selectivity of CTLAP and sc-3136, the lowest interfering signal from each enzyme was identified and tabulated in Table 1. Also identified was the assay time at which the total competing signal (sum of CTB, CTV, and CTS) was lowest, and the relative intensity of all competing enzymes at that time point. […] The optimum results are achieved within 10 min incubation time, lending strength to the application of CTLAP for rapid detection of CTL, even in the presence of competing enzymes.
Table 1. Signal generated by CTB, CTV, and CTS, or all three enzymes together, relative to CTL signal at that time point. The lowest competing signal over the time course in FIG. 5 was selected for each individual enzyme, as well as for the sum of signals from all three enzymes. The time point at which the sum of all competing signals is lowest is also listed.
• 1. Recombinant human Cathepsin L/MEP protein (Active) • a. Product ab174030; Lot No. (Conc.) GR3210572-1 (N/A) Sino Biological • 1. Human Cathepsin B/CTSB Protein (His Tag) • a. Cat. No. 10483-H08H • 2. Human Cathepsin V/Cathepsin L2/Preproprotein Protein (His Tag) • a. Cat. No. 10093-H08H • 3. Human Cathepsin S/CTSS Protein (His Tag) • a. Cat. No. 10487-H08H Santa Cruz Biotechnology, Inc. • 1. […]
Cathepsins reconstituted as usual and diluted into cathepsin reaction buffers (pH 5.0 or 6.5) in an opaque-bottom 96-well plate. Probes added quickly to each active well, then emission measured immediately on BioTek Synergy H1 plate reader, collecting consecutive 36 sec runs over the first 15 min of reaction time. […]

| Compound | time point at which the sum of all competing signals is lowest (pH 5.0) [min] | time point at which the sum of all competing signals is lowest (pH 6.5) |
| --- | --- | --- |
| Cc1cc(=O)oc2cc(NC(=O)C(CCCCN)NC(=O)C(Cc3ccc(-c4cccs4)cc3)NC(=O)OCc3ccccc3)ccc12 (stereo not shown) [CTLAP] | 3.4 to 4.0 | 10.2 to 10.4 min and 10.2 to 11.4 min |
| Cc1cc(=O)oc2cc(NC(=O)C(CCCN=C(N)N)NC(=O)C(Cc3ccccc3)NC(=O)OCc3ccccc3)ccc12 (stereo not drawn) [sc-3136, Z-FR-AMC, reference compound] (Cbz-Phe-Arg-{AMC}; configuration not given here) | 7.6 | 11.4 min |
